Source: paper PMC7426271

The chains behind the UniProt entries cited, without tags or fusion partners.
UniProt Q92833: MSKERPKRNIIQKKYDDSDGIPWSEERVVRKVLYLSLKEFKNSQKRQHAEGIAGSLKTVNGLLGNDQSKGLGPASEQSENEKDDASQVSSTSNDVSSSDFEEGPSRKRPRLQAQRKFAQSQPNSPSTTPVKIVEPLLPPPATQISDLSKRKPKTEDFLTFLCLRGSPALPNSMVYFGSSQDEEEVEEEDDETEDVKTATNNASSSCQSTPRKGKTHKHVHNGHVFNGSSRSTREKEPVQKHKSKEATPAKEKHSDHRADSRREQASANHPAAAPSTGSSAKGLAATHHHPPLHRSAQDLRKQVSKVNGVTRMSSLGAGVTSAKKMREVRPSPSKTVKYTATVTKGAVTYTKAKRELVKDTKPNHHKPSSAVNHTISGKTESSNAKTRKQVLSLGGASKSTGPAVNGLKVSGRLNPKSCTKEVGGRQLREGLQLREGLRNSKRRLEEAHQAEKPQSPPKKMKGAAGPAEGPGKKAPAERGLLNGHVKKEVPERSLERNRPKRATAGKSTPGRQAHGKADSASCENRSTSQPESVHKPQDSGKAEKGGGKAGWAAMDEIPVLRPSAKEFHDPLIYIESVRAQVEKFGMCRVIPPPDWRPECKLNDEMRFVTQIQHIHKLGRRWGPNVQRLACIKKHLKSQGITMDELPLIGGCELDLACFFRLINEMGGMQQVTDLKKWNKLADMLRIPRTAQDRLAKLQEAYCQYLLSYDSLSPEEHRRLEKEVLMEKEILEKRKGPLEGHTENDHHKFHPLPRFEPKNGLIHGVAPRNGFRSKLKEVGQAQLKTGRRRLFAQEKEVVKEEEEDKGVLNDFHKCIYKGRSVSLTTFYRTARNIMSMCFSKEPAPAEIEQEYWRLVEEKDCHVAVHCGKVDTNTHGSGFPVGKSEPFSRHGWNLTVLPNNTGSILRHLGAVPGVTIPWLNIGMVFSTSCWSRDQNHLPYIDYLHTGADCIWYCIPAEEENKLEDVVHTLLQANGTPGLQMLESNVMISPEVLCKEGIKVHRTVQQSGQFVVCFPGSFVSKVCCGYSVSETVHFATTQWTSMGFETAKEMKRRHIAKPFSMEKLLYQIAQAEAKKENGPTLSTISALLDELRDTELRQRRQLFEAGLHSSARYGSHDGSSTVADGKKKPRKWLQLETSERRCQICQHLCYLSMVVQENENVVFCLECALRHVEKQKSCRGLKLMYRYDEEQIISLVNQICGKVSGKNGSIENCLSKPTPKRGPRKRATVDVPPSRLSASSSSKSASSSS
UniProt P67809: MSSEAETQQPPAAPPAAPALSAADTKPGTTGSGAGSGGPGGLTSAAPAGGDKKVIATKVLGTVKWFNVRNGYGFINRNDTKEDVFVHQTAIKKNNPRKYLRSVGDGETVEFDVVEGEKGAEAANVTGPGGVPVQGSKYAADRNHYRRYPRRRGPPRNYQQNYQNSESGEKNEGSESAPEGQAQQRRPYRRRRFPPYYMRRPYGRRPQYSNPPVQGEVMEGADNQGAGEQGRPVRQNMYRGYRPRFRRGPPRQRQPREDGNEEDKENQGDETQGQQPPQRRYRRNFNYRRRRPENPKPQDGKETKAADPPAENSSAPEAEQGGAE

Target: JARID2 (human (endogenous in H9 hESC and hNPC)) (UniProt Q92833)
Assay: affinity purification with mass spectrometry; endogenous JARID2 immunoprecipitated (anti-JARID2) from H9 hESC nuclear extract, against IgG IP; three biological replicates

With “Y-box binding protein 1 (from UniProt P67809 1-324)” the binding was “binds”.

Results are given in words; binding and its absence hold for the method and conditions named. In cells and extracts the contact can be indirect. A yes stands for co-enrichment or nearness to the bait. Other partners may have been found.
